Counter-ions that a name gives are not always drawn. This is one part of the list. Most values come without repeats; read them as rough.

The test system of this experiment is hsa-miR-132-3p. Nature of the experiment: miR-132-3p level in NGN2-iNs after compound treatment (TMM-normalised, ComBat batch-corrected) (batch-corrected normalised expression (arbitrary units)); higher = higher miR-132-3p expression. The following applies: 10 µM; 24 h; human iPSC-derived NGN2 neurons (BR43).
On to `Cc1cc(C2CCCCC2)n(O)c(=O)c1` [Ciclopirox ethanolamine], for which the “miR-132-3p level in NGN2-iNs” value amounted to 1.58.

`Cc1cc(C2CCCCC2)n(O)c(=O)c1` [Ciclopirox]: the “miR-132-3p level in NGN2-iNs” value was -0.718.

For the compound `COc1cc(C(=O)NS(=O)(=O)c2ccccc2C)ccc1Cc1cn(C)c2ccc(NC(=O)OC3CCCC3)cc12` [Zafirlukast], the “miR-132-3p level in NGN2-iNs” value turned out to be 0.601.

`CN[C@H]1CN(c2ccc3c(=O)c(C(=O)O)cn(-c4nccs4)c3n2)C[C@@H]1OC` [Voreloxin (SNS-595) hydrochloride]: the “miR-132-3p level in NGN2-iNs” value worked out at 0.707.

Turning to `CN1C(C(=O)Nc2ccccn2)=C(O)c2sccc2S1(=O)=O` [Tenoxicam], the “miR-132-3p level in NGN2-iNs” value was -0.447.

As to `N#Cc1ccc2[nH]cc(CCCCN3CCN(c4ccc5oc(C(N)=O)cc5c4)CC3)c2c1` [Vilazodone HCl], the “miR-132-3p level in NGN2-iNs” value is -0.101.

`CCc1nc(-c2cccc(C)c2)c(-c2ccnc(NC(=O)c3ccccc3)c2)s1`: the “miR-132-3p level in NGN2-iNs” value is -0.676.

Take `Cc1cccc(C)c1NC(=O)C1CCCCN1C` (stereo not drawn) [Mepivacaine HCl]: the “miR-132-3p level in NGN2-iNs” value is -2.11.

Consider `Cc1c(C(N)=O)cc([N+](=O)[O-])cc1[N+](=O)[O-]` [Dinitolmide], for which the “miR-132-3p level in NGN2-iNs” value worked out at 1.22.

For the compound `CN(C)CCC=C1c2ccccc2CCc2ccccc21` [Amitriptyline HCl], the “miR-132-3p level in NGN2-iNs” value came to 0.426.

As to `Cc1ccnc2c1NC(=O)c1cccnc1N2C1CC1` [Nevirapine], the “miR-132-3p level in NGN2-iNs” value is -0.203.

As to `Cc1[nH]c(=O)c(C#N)cc1-c1ccncc1` [Milrinone], the “miR-132-3p level in NGN2-iNs” value was found to be 1.2.

As to `COc1cc2c(cc1OC)CN(CCc1ccc(NC(=O)c3cc(OC)c(OC)cc3NC(=O)c3cnc4ccccc4c3)cc1)CC2` [Tariquidar (XR9576)], the “miR-132-3p level in NGN2-iNs” value is 0.0991.

With `COc1cc(Cc2cnc(N)nc2N)cc(OC)c1OC` [Trimethoprim], the “miR-132-3p level in NGN2-iNs” value is 0.237.

In the case of `N#CC(=Cc1ccc(O)c(O)c1)C(=O)NCc1ccccc1` [AG-490 (Tyrphostin B42)], the “miR-132-3p level in NGN2-iNs” value stood at 0.0738.

In the case of `CC1(COc2ccc3c(c2)ncn3-c2ccc3cccc(N4CCC(N)CC4)c3n2)COC1`, the “miR-132-3p level in NGN2-iNs” value is -0.175.

On to `C[C@@H](Oc1cc(-n2cnc3ccc(CN4CCN(C)CC4)cc32)sc1C(N)=O)c1ccccc1C(F)(F)F`, for which the “miR-132-3p level in NGN2-iNs” value is -0.461.

With `CC(C)(C)C(=O)OCOP(=O)(COCCn1cnc2c(N)ncnc21)OCOC(=O)C(C)(C)C` [Adefovir Dipivoxil], the “miR-132-3p level in NGN2-iNs” value was -0.625.

As to `COc1cc(OC)c(C(=O)CCCN2CCCC2)c(OC)c1` [Buflomedil HCl], the “miR-132-3p level in NGN2-iNs” value was -0.516.

With `O=c1ccc2ccc(O)c(O)c2o1` [Daphnetin], the “miR-132-3p level in NGN2-iNs” value stood at 0.003.

As for `O=C(O)CC[C@H]1CC[C@@](c2cc(F)ccc2F)(S(=O)(=O)c2ccc(Cl)cc2)CC1`, the “miR-132-3p level in NGN2-iNs” value was -0.0434.

Regarding `Nc1nc(N)c2nc(-c3cccc(O)c3)cnc2n1`, the “miR-132-3p level in NGN2-iNs” value was -1.13.

On to `CN1CCC(=C2c3ccccc3CC(=O)c3sccc32)CC1` [Ketotifen Fumarate], for which the “miR-132-3p level in NGN2-iNs” value worked out at 0.503.

On to `COc1ccccc1N1CCN(CC(O)COc2cccc3ccccc23)CC1` (stereo not drawn) [Naftopidil], for which the “miR-132-3p level in NGN2-iNs” value was -0.899.

Take `COc1ccccc1N1CCN(CC(O)COc2cccc3ccccc23)CC1` (stereo not drawn) [Naftopidil DiHCl]: the “miR-132-3p level in NGN2-iNs” value was -0.265.

With `CC(C)(Sc1cc(C(C)(C)C)c(O)c(C(C)(C)C)c1)Sc1cc(C(C)(C)C)c(O)c(C(C)(C)C)c1` [Probucol], the “miR-132-3p level in NGN2-iNs” value was -1.85.

For the compound `Nc1c(Br)cc(Br)cc1CN[C@H]1CC[C@H](O)CC1` [Ambroxol HCl], the “miR-132-3p level in NGN2-iNs” value was 0.847.

In the case of `Cn1ccnc1S` [Methimazole], the “miR-132-3p level in NGN2-iNs” value is 0.74.

In the case of `CS(=O)(=O)CCNCc1ccc(-c2ccc3ncnc(Nc4ccc(OCc5cccc(F)c5)c(Cl)c4)c3c2)o1`, the “miR-132-3p level in NGN2-iNs” value was -0.466.

`C=CC(=O)Nc1cccc(Nc2nc(Nc3ccc(N4CCN(C(C)=O)CC4)cc3OC)ncc2C(F)(F)F)c1` [Rociletinib (CO-1686)]: the “miR-132-3p level in NGN2-iNs” value is 1.19.

Consider `CC(C)(Oc1ccc(Cl)cc1)C(=O)O` [Clofibric Acid], for which the “miR-132-3p level in NGN2-iNs” value was -0.0903.

Turning to `COc1ccc(C(=O)Nc2sc3c(c2C(N)=O)CCCC3)cc1OC`, the “miR-132-3p level in NGN2-iNs” value came to 0.179.

Take `O=NO` [Sodium Nitrite]: the “miR-132-3p level in NGN2-iNs” value was found to be 0.723.

As for `COC1C(O)CC(=O)OC(C)CC=CC=CC(OC2CCC(N(C)C)C(C)O2)C(C)CC(CC=O)C1OC1OC(C)C(OC2CC(C)(O)C(O)C(C)O2)C(N(C)C)C1O` (stereo not drawn) [Spiramycin], the “miR-132-3p level in NGN2-iNs” value was 0.172.

Turning to `COc1cc2ncc(-c3ccccc3)nc2cc1OC` [Tyrphostin AG 1296], the “miR-132-3p level in NGN2-iNs” value is -0.338.

In the case of `CS(=O)(=O)c1cccc(CNc2nc(Nc3ccc4c(c3)CCC(=O)N4)ncc2C(F)(F)F)c1`, the “miR-132-3p level in NGN2-iNs” value stood at 0.318.

`CC1(C)CCC(CN2CCN(c3ccc(C(=O)NS(=O)(=O)c4ccc(NCC5CCOCC5)c([N+](=O)[O-])c4)c(Oc4cnc5[nH]ccc5c4)c3)CC2)=C(c2ccc(Cl)cc2)C1` [Venetoclax (ABT-199, GDC-0199)]: the “miR-132-3p level in NGN2-iNs” value was -0.999.

Consider `CCCCCCCCCCC[C@@H](C[C@@H]1OC(=O)[C@H]1CCCCCC)OC(=O)[C@H](CC(C)C)NC=O` [Orlistat], for which the “miR-132-3p level in NGN2-iNs” value is 0.198.

On to `CCN(CCO)CCCOc1ccc2c(Nc3cc(CC(=O)Nc4cccc(F)c4)[nH]n3)ncnc2c1` [Barasertib (AZD1152-HQPA)], for which the “miR-132-3p level in NGN2-iNs” value amounted to 0.0275.

In the case of `CC1CCc2c(N3CCC(O)CC3)c(F)cc3c(=O)c(C(=O)O)cn1c23` (stereo not drawn) [Nadifloxacin], the “miR-132-3p level in NGN2-iNs” value stood at 0.785.

Turning to `NC12CC3CC(CC(C3)C1)C2` [Amantadine HCl], the “miR-132-3p level in NGN2-iNs” value was determined as 1.25.

As for `O=c1c2ccccc2oc2ccccc12` [Xanthone], the “miR-132-3p level in NGN2-iNs” value is -0.176.

For `Nc1ncn([C@H]2C[C@H](O)[C@@H](CO)O2)c(=O)n1` [Decitabine], the “miR-132-3p level in NGN2-iNs” value is 0.342.

`O=c1cc(-c2ccc(O)c(O)c2)oc2cc(O)cc(O)c12` [Luteolin]: the “miR-132-3p level in NGN2-iNs” value was 1.2.

With `CC(C)/N=c1\cc2n(-c3ccc(Cl)cc3)c3ccccc3nc-2cc1Nc1ccc(Cl)cc1` [Clofazimine], the “miR-132-3p level in NGN2-iNs” value is -0.188.

`C[C@@H]1[C@H](O)[C@@H](C)/C=C/C=C/C=C/C=C/C=C/C=C/C=C/[C@H](O[C@@H]2O[C@H](C)[C@@H](O)[C@H](N)[C@@H]2O)C[C@@H]2O[C@](O)(C[C@@H](O)C[C@@H](O)[C@H](O)CC[C@@H](O)C[C@@H](O)CC(=O)O[C@H]1C)C[C@H](O)[C@H]2C(=O)O` [Amphotericin B]: the “miR-132-3p level in NGN2-iNs” value is -0.029.

As for `COc1ccc(CC2c3cc(OC)c(OC)cc3CC[N+]2(C)CCC(=O)OCCCCCOC(=O)CC[N+]2(C)CCc3cc(OC)c(OC)cc3C2Cc2ccc(OC)c(OC)c2)cc1OC` (stereo not drawn) [Atracurium Besylate], the “miR-132-3p level in NGN2-iNs” value was -0.71.

As for `CC(=O)[C@H]1CC[C@H]2[C@@H]3CC=C4C[C@@H](O)CC[C@]4(C)[C@H]3CC[C@]12C` [Pregnenolone], the “miR-132-3p level in NGN2-iNs” value was found to be 0.134.

These data come from the supplement of paper PMC10663445.
